Among the data in publication PMC7996396, “Affinity and Structural Analysis of the U1A RNA Recognition Motif with Engineered Methionines to Improve Experimental Phasing” are binding values, retold here.

The chains behind the UniProt entries cited, without tags or fusion partners. Where a name states a change or a piece, a line headed by the entry shows the natural chain unless it says otherwise. A line that says so, or that is headed by a name, gives the form on record, which may keep a tag or linker.
U1A RNA-recognition motif 1 (RRM1) variant Y31H/Q36R (double-mutant protein, dmU1A) (P09012, form named): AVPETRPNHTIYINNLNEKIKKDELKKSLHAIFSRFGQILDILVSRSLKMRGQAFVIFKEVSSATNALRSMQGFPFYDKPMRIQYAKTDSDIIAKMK
selenomethionine-labeled dmU1A(F37M/F77M) (P09012, form named): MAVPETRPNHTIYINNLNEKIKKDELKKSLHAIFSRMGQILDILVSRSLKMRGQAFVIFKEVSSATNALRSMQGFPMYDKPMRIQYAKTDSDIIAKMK

No constants are given. Whether binding was seen depends on the method and setting.

Assay [1] concerns the target U1A RNA-recognition motif 1 (RRM1) variant Y31H/Q36R (double-mutant protein, dmU1A) (human) (UniProt P09012). Kind of assay: ITC; protein injected into buffer alone (heats of dilution) as a control for oligomerization; PEAQ-ITC, 20 °C, 0.05 M Na-HEPES pH 7.5, 0.05 M NaCl, 0.05 M KCl, 0.002 M MgCl2, 0.005 M β-ME; both purified. A general note: In ITC the heat of successive injections is recorded.

Assay [2] shares this target. Kind of assay: SEC; HiPrep (16/60) Sephacryl S-300 HR column, concentrated protein sample (~150 μm), molecular weight standards; both purified. (SEC sorts molecules by how far they enter the pores of the column.)
Assay [3] addresses selenomethionine-labeled dmU1A(F37M/F77M) (human) (UniProt P09012). Kind of assay: ITC; protein injected into buffer alone (heats of dilution) as a control for oligomerization; PEAQ-ITC, 20 °C, 0.05 M Na-HEPES pH 7.5, 0.05 M NaCl, 0.05 M KCl, 0.002 M MgCl2, 0.005 M β-ME; both purified.
Assay [4] shares this target. Kind of assay: SEC; HiPrep (16/60) Sephacryl S-300 HR column, concentrated protein sample (~150 μm), molecular weight standards; both purified.

In the case of “U1A RNA-recognition motif 1 (RRM1) variant Y31H/Q36R (double-mutant protein, dmU1A) (from UniProt P09012 2-98) (domain or fragment)”, the binding result in assay [1] is “no binding (tested: ~10-fold higher than the RNA (7–10 μM))”; in assay [2], “no binding (tested: ~150 μm)”.
Consider “selenomethionine-labeled dmU1A(F37M/F77M) (from UniProt P09012 1-98) (domain or fragment)”, for which the binding result is recorded as “no binding (tested: ~10-fold higher than the RNA (7–10 μM))” in assay [3] and “no binding (tested: ~150 μm)” in assay [4].
